Data: the supplement of paper PMC10849652
This is one part of the list.

Sequences of proteins named here, by UniProt entry; tags and fusion partners are left off. A change or cut given only in a name is not applied to a line headed by its entry.
UniProt Q9Y3B4: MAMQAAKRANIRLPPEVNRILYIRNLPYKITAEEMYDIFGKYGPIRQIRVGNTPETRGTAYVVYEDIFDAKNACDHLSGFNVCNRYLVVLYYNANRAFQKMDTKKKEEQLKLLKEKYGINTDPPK
UniProt Q8N6T7, whole entry, looked up: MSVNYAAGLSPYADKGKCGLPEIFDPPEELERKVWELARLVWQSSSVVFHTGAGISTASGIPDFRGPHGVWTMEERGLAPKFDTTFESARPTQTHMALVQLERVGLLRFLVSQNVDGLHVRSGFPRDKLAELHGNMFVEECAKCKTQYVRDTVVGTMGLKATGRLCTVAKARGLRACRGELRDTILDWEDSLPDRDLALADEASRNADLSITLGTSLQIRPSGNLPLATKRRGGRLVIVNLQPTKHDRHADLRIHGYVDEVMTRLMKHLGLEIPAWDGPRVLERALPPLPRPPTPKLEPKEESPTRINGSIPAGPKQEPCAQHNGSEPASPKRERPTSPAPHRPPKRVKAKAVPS
UniProt O75533, whole entry, looked up: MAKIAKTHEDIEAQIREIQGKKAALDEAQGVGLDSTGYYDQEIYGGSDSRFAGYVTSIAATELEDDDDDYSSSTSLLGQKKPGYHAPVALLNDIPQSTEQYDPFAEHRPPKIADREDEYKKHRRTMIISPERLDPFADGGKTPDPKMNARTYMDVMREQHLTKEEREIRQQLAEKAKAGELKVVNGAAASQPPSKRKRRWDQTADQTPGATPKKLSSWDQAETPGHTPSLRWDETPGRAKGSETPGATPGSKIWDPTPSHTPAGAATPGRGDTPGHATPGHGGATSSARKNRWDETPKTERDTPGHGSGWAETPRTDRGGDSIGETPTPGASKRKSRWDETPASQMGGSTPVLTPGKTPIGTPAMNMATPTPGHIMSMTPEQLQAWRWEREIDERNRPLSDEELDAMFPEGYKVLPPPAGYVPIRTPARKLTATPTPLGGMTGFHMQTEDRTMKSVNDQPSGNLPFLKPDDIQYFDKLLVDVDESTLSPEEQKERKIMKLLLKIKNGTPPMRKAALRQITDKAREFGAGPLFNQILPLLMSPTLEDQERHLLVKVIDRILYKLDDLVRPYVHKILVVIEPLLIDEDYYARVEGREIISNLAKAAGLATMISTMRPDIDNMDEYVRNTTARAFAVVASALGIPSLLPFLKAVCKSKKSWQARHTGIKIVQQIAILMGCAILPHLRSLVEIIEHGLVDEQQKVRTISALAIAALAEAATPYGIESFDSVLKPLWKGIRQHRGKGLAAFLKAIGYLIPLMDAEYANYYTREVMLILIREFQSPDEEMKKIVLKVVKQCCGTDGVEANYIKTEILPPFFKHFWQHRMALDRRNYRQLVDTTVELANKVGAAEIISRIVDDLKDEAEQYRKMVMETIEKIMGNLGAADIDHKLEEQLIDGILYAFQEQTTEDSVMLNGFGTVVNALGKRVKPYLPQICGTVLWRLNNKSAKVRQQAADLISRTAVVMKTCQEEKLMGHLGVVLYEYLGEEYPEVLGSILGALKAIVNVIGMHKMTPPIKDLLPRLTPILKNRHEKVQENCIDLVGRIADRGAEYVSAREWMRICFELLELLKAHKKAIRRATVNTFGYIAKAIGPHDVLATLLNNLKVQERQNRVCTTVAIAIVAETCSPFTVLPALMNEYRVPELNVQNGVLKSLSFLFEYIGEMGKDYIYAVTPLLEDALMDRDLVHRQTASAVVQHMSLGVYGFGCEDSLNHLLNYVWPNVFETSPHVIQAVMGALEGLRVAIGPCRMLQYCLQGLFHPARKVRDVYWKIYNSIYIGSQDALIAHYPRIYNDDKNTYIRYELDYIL
UniProt P31947: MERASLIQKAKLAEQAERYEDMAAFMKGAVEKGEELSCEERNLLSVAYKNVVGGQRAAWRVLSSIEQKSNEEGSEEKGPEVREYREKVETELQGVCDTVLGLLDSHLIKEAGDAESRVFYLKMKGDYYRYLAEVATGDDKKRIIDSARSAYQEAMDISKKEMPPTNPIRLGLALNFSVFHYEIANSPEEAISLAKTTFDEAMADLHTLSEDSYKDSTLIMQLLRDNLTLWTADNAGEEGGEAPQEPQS
UniProt Q15637: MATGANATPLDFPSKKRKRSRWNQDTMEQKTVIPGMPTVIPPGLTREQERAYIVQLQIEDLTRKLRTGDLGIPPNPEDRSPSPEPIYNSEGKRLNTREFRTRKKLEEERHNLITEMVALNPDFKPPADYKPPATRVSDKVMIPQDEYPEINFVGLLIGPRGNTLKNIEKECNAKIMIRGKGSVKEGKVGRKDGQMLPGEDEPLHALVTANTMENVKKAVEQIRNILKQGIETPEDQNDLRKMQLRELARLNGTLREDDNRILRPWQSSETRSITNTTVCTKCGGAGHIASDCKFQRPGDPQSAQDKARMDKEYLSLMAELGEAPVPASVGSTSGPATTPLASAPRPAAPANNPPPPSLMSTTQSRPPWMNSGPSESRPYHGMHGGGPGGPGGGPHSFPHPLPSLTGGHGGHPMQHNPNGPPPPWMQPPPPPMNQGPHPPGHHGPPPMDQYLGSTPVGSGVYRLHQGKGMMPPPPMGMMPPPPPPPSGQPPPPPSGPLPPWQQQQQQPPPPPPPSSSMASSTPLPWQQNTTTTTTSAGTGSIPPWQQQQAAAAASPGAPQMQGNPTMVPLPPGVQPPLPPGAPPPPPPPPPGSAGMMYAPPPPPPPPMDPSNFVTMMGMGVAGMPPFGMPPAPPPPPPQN
UniProt O60613, whole entry, looked up: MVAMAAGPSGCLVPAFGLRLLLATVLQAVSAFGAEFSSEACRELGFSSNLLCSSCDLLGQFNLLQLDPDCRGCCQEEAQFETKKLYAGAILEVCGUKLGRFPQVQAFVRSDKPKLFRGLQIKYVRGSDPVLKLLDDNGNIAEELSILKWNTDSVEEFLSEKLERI
UniProt Q13435: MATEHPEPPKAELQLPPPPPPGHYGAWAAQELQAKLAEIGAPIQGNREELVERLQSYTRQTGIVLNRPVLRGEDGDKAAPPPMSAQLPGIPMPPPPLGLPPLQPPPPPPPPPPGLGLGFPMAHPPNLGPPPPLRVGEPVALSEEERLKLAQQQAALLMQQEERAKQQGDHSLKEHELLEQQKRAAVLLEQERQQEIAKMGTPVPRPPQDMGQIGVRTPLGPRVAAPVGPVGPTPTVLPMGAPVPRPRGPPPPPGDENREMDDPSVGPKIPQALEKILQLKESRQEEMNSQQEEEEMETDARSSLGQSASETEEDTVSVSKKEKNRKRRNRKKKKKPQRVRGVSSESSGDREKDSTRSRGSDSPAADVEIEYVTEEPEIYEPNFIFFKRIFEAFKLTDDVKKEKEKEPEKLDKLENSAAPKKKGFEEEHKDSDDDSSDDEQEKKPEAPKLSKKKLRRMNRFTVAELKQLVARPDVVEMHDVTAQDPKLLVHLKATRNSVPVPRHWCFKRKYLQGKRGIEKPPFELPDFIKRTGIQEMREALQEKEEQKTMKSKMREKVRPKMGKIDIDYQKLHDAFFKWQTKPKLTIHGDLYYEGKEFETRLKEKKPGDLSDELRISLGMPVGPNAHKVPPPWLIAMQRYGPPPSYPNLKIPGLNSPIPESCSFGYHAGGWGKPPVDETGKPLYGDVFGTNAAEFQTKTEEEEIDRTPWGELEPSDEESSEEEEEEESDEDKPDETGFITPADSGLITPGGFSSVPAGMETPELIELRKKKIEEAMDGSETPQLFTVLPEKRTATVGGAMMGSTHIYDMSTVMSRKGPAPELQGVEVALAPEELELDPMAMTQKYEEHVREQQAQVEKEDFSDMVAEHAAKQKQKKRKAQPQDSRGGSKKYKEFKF
UniProt Q9P0V9: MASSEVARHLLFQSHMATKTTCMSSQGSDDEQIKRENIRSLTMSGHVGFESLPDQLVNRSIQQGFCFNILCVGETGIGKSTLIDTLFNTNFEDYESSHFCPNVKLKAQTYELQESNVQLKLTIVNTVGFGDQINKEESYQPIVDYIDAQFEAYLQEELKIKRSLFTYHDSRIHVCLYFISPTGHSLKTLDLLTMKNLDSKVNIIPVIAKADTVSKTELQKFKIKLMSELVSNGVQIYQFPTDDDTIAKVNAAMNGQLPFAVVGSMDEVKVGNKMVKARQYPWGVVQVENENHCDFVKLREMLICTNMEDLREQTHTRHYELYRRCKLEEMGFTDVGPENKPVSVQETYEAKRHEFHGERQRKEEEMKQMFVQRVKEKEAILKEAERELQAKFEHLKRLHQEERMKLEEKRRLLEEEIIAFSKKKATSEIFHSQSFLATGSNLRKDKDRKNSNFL
UniProt P50452: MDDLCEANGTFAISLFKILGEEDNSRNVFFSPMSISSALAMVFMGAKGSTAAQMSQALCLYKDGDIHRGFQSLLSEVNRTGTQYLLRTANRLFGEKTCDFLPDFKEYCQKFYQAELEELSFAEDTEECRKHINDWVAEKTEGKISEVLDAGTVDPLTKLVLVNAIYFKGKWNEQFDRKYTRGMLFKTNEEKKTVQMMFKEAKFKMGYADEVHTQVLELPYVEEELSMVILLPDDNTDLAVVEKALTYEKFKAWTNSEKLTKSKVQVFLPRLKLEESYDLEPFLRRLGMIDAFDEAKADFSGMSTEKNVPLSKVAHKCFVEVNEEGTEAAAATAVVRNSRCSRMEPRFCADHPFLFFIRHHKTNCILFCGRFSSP
UniProt Q96EQ0: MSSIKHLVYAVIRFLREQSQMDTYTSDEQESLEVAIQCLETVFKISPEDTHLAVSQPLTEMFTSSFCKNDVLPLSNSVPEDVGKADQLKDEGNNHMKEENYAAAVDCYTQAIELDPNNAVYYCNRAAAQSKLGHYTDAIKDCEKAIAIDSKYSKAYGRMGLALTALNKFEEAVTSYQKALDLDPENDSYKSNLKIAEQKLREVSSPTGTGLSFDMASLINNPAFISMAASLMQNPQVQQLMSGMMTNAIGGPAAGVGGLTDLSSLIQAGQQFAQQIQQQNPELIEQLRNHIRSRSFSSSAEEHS
UniProt Q9UBV2: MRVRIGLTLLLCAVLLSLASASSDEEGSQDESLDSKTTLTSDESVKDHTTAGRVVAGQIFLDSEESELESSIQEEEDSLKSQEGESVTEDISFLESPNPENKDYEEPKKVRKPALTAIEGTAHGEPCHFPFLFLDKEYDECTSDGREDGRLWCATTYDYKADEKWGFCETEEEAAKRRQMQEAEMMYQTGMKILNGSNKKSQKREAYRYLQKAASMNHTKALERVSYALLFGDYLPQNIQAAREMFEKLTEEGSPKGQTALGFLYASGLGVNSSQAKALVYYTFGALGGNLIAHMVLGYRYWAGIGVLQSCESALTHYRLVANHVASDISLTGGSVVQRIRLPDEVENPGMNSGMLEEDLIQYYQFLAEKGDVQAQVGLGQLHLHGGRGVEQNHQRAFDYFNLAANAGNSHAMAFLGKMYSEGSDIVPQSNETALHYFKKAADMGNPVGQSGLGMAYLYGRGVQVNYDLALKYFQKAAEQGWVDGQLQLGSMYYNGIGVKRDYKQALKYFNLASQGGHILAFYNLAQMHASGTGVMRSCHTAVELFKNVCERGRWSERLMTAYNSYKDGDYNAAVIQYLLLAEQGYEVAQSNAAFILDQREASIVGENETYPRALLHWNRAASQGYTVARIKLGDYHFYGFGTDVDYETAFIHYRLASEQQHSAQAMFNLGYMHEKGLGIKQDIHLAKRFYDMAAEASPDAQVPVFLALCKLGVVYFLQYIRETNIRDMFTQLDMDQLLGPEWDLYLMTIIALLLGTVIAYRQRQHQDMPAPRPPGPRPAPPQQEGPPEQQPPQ
UniProt P61619, whole entry, looked up: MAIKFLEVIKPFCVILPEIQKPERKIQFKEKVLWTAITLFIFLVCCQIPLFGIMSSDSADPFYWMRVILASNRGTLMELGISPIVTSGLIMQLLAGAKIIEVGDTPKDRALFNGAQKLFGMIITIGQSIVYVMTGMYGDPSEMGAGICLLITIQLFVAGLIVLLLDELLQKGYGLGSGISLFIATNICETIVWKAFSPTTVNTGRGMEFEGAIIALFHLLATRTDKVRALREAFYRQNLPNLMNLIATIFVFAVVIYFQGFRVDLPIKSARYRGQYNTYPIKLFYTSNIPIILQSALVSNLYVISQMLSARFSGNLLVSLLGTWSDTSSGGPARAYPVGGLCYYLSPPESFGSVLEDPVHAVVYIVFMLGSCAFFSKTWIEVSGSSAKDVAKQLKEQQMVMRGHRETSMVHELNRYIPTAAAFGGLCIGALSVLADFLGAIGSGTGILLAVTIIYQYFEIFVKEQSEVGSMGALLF
UniProt Q8NC51: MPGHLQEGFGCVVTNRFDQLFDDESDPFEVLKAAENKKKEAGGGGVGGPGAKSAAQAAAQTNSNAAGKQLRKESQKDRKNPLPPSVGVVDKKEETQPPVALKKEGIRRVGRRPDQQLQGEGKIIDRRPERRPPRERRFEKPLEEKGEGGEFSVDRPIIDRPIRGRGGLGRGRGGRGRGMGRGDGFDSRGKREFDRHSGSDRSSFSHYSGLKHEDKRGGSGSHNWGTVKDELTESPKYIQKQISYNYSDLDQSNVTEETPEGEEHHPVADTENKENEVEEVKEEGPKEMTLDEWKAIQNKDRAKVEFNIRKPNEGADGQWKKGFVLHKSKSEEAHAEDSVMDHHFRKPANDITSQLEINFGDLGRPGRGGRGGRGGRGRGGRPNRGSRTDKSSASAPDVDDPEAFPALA

These targets were tested with O=C(O)c1ccc2c(c1)nc(Nc1cccc(Cl)c1)c1ccncc12 [silmitasertib] (assay: log2 fold change, soluble protein after heating vs DMSO (PISA); higher = thermal stabilisation; K562 cells, 10 uM, 30 min; active = over 0.2 and 3.5 SD of the protein, either way, in both replicates (recomputed)).
Summary of the method: (§1)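 Thermal stability values are relative to control samples and come from duplicates. They are expressed as log2 fold changes. For measurement, K562 cells (2×10^6 cells/mL) received 10 μM compound for 30 min, and aliquots were heated for 3 min over 48°C-58°C, pooled, and extracted at 4°C in PBS with 0.5% NP-40. Soluble protein, the supernatant after 21,000xg for 90 min, was quantified by TMTpro 16plex LC-MS/MS with equalised channel sums.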

log2 fold change, inactive:
SHC1 isoform 6 (UniProt P29353) -0.011
SEC61B (UniProt P60468) 0.011
SF3A3 (UniProt Q12874) 0.09
SERPINB1 (UniProt P30740) -0.021
SH3BGRL3 (UniProt Q9H299) -0.036
SETDB1 (UniProt Q15047) -0.07
SEPTIN11 isoform 2 (UniProt Q9NVA2) 0.011
SERPINB6, A0A087X1N8 0.005
SF3B6 (UniProt Q9Y3B4) -0.055
SF3B3 (UniProt Q15393) 0.053
SIRT6 (UniProt Q8N6T7) 0.034
SF3B1 (UniProt O75533) 0
SFN (UniProt P31947) -0.061
SF1 isoform 6 (UniProt Q15637) -0.128
SELENOF (UniProt O60613) 0.021
SERPINC1 (UniProt P01008) 0.067
SEL1L3 (UniProt Q68CR1) 0.053
SF1 isoform 5 (UniProt Q15637) -0.026
SH3BGRL2 (UniProt Q9UJC5) 0.017
SEMA4C (UniProt Q9C0C4) -0.009
SEPTIN9 (UniProt Q9UHD8) -0.029
SH3BP1 (UniProt Q9Y3L3) 0.025
SF3B2 (UniProt Q13435) 0.074
SIGMAR1 (UniProt Q99720) -0.029
SELENBP1 isoform 4 (UniProt Q13228) -0.027
SEPTIN10 isoform 2 (UniProt Q9P0V9) 0.013
SIRT5 (UniProt Q9NXA8) 0.057
SEPTIN6 (UniProt Q14141) -0.064
SERPINB8 (UniProt P50452) 0.02
SGTB (UniProt Q96EQ0) 0.101
SEC62 (UniProt Q99442) 0.005
SEL1L (UniProt Q9UBV2) 0.03
SEC61A2 (UniProt Q9H9S3) 0.01
SGMS1 (UniProt Q86VZ5) 0.009
SFSWAP isoform 2 (UniProt Q12872) -0.038
SEPTIN7 (UniProt Q16181) -0.033
SEC61A1 (UniProt P61619) 0.035
SHOC2 (UniProt Q9UQ13) 0.038
SERBP1 (UniProt Q8NC51) 0.066
SH3GLB1 isoform 2 (UniProt Q9Y371) 0.001

What follows are targets tested with O=C1NC(=O)C(c2cnc3ccccn23)=C1c1cn2c3c(cc(F)cc13)CN(C(=O)N1CCCCC1)CC2 in the same assay as above.
Summary of the method: as §1

log2 fold change, inactive:
SHC1 isoform 6 (UniProt P29353) -0.034
SEC61B (UniProt P60468) 0.032
SF3A3 (UniProt Q12874) 0.008
SERPINB1 (UniProt P30740) -0.051
SH3BGRL3 (UniProt Q9H299) -0.064
SETDB1 (UniProt Q15047) -0.37
SEPTIN11 isoform 2 (UniProt Q9NVA2) -0.044
SERPINB6, A0A087X1N8 -0.016
SF3B6 (UniProt Q9Y3B4) -0.176
SF3B3 (UniProt Q15393) 0.047
SIRT6 (UniProt Q8N6T7) -0.143
SF3B1 (UniProt O75533) 0.037
SFN (UniProt P31947) -0.046
SF1 isoform 6 (UniProt Q15637) -0.424
SELENOF (UniProt O60613) -0.04
SERPINC1 (UniProt P01008) 0.123
SEL1L3 (UniProt Q68CR1) -0.01
SF1 isoform 5 (UniProt Q15637) 0.008
SH3BGRL2 (UniProt Q9UJC5) -0.127
SEMA4C (UniProt Q9C0C4) -0.046
SEPTIN9 (UniProt Q9UHD8) -0.084
SH3BP1 (UniProt Q9Y3L3) 0.01
SF3B2 (UniProt Q13435) 0.052
SIGMAR1 (UniProt Q99720) 0.018
SELENBP1 isoform 4 (UniProt Q13228) 0.008
SEPTIN10 isoform 2 (UniProt Q9P0V9) -0.076
SIRT5 (UniProt Q9NXA8) -0.052
SEPTIN6 (UniProt Q14141) -0.032
SERPINB8 (UniProt P50452) 0.011
SGTB (UniProt Q96EQ0) 0.006
SEC62 (UniProt Q99442) -0.098
SEL1L (UniProt Q9UBV2) 0
SEC61A2 (UniProt Q9H9S3) 0.006
SGMS1 (UniProt Q86VZ5) -0.066
SFSWAP isoform 2 (UniProt Q12872) -0.076
SEPTIN7 (UniProt Q16181) -0.061
SEC61A1 (UniProt P61619) -0.028
SHOC2 (UniProt Q9UQ13) -0.054
SERBP1 (UniProt Q8NC51) 0.073
SH3GLB1 isoform 2 (UniProt Q9Y371) -0.017
